B1: α3β3γ complex of BF1 (F1-ATPase from Bacillus subtilis) (Bacillus subtilis subsp. subtilis str. 168) (protein)
chain 1: MKKGRVSQVLGPVVDVRFEDGHLPEIYNAIKISQPAASENEVGIDLTLEVALHLGDDTVRTIAMASTDGVQRGMEAVDTGAPISVPVGDVTLGRVFNVLGENIDLNEPVPADAKKDPIHRQAPSFDQLSTEVEILETGIKVVDLLAPYIKGGKIGLFGGAGVGKTVLIQELINNIAQEHGGISVFAGVGERTREGNDLFYEMSDSGVINKTAMVFGQMNEPPGARMRVALTGLTMAEHFRDVQGQDVLFFIDNIFRFTQAGSEVSALLGRMPSAVGYQPTLATEMGQLQERITSTNVGSVTSIQAIYVPADDYTDPAPATTFAHLDATTNLERKLTEMGIYPAVDPLASTSRALAPEIVGEEHYAVAREVQSTLQRYKELQDIIAILGMDELGEEDKLVVHRARRIQFFLSQNFHVAEQFTGQKGSYVPVKETVQGFKEILAGKYDHLPEDAFRLVGRIEEVVEKAKEMGVEV
chain 2: SIKAEEISTLIKQQIQNYQSDIEVQDVGTVIQVGDGIARVHGLDNCMAGELVEFSNGVLGMAQNLEESNVGIVILGPFSEIREGDEVKRTGRIMEVPVGEELIGRIVNPLGQPVDGLGPILTSKTRPIESPAPGVMDRKSVHEPLQTGIKAIDALIPIGRGQRELIIGDRQTGKTSVAIDAILNQKDQDMICVYVAIGQKESTVRGVVETLRKHGALDYTIVVTASASQPAPLLYLAPYAGVTMAEEFMYNGKHVLVVYDDLSKQAAAYRELSLLLRRPPGREAFPGDVFYLHSRLLERAAKLSDAKGAGSITALPFVETQAGDISAYIPTNVISITDGQIFLQSDLFFSGVRPAINAGLSVSRVGGSAQIKAMKKVSGTLRLDLASYRELEAFAQFGSDLDQATQAKLNRGARTVEVLKQDLNKPLPVEKQVAILYALTKGYLDDIPVADIRRFEEEYYMYLDQNHKDLLDGIAKTGNLPADEDFKAAIEGFKRTFAPSN
notes: recombinant α3β3γ subcomplex without δ and ε; His6-tag at N-terminus of β (kept); initiation codons of α and γ changed to ATG; expressed in E. coli BL21(DE3) from pET21-BF1; nucleotide-free; with ATP synthase gamma chain
B2: α3β3γε complex of BF1 (F1-ATPase from Bacillus subtilis) (Bacillus subtilis subsp. subtilis str. 168) (protein)
chain 1: B1 chain 1
chain 2: B1 chain 2
notes: recombinant α3β3γ (His6-tag at N-terminus of β, kept) reconstituted with excess separately purified BF1 ε subunit; no δ; E. coli expression; with ATP synthase gamma chain; ATP synthase epsilon chain

Substrate: Nc1ncnc2c1ncn2[C@@H]1O[C@H](COP(=O)(O)OP(=O)(O)OP(=O)(O)O)[C@@H](O)[C@H]1O
Experiment: purified protein
Format: biochemical, Bacillus subtilis
Settings: initial rate, no LDAO, equimolar MgSO4 plus 2 mM MgSO4, pH 7.5, 50 mM K2SO4, 25 °C

| Protein | Km [µM] | kcat [s⁻¹] |
| --- | --- | --- |
| B1 | 12.7 ± 0.9 | 56.2 ± 0.9 |
| B2 | 13.8 ± 0.9 | 72.3 ± 1.3 |
